Results are given in words; binding and its absence hold for the method and conditions named. In cells and extracts the contact can be indirect. Some entries that bind do so weakly or less than the wild type.

In this experiment the target is HA-tagged HOOK1 (UniProt Q9UJC3). Put plainly: co-IP; anti-HA agarose on lysates of 293T cells exogenously expressing Flag- and HA-tagged HOOK1 and TNFSF13B; immunoblotting.

Turning to “Flag-tagged TNFSF13B (from UniProt Q9Y275 1-285)”, the binding result is “binds”.

For the origin of these results see paper PMC10265082.
